In PMC11165193:
These are yes or no findings as the source states them, for the method shown. Binding seen in cells or lysates may run through a third protein. These calls come from enrichment with a bait or labelling near it, and not all partners need be listed.

By UniProt entry, the sequences of proteins in these tests, tags left out. Where a name states a change or a piece, a line headed by the entry shows the natural chain unless it says otherwise.
UniProt Q8K3Z0: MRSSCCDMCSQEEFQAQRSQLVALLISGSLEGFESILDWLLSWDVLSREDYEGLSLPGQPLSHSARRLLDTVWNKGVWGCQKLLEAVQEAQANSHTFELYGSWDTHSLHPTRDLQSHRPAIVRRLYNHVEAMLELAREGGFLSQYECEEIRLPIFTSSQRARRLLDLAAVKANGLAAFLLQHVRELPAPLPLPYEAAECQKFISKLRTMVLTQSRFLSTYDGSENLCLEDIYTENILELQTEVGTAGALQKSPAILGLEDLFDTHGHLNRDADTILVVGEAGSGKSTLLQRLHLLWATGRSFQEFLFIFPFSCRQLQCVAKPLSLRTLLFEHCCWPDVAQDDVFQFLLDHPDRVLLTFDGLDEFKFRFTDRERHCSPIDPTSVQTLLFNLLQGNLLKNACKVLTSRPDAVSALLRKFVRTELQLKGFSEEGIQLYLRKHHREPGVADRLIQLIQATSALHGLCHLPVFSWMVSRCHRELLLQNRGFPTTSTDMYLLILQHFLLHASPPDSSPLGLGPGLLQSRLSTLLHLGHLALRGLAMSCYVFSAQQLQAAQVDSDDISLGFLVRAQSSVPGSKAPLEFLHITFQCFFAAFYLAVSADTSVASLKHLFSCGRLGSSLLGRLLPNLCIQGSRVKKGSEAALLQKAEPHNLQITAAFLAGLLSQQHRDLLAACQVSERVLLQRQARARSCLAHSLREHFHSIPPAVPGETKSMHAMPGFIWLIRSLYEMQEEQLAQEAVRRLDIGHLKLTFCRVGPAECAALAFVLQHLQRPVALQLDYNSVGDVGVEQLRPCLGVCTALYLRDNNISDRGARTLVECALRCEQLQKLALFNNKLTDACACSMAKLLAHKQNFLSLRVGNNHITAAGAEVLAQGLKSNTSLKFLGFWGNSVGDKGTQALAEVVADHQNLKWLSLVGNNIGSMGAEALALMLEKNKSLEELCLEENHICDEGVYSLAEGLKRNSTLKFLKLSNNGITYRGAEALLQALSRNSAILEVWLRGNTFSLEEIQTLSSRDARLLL

Molecular target: GST-tagged NOD2 LRR domain (mouse) (UniProt Q8K3Z0)
Assay: affinity purification with mass spectrometry; purified GST-LRR on glutathione-Sepharose resin (magnetic beads in the results); M. pneumoniae whole cell lysate, overnight at 4 °C; washed three times with Tris-NaCl buffer; eluate by silver staining and LC-MS/MS; GST as control; only the target purified

B1: Fructose-bisphosphate aldolase (protein, UniProt P75089 1-288)
chain: MLVNIKQMLQHAKQHHYAVPHININNYEWAKAVLTAAQQAKSPIIVSTSEGALKYISGHQVVVPMVKGLVDALKITVPVALHLDHGSYEGCKAALQAGFSSIMFDGSHLPFQENFTKSKELIELAKQTNASVELEVGTLGGEEDGIVGQGELANIEECKQIATLKPDALAAGIGNIHGLYPDNWKGLNYELIEAIAKATNLPLVLHGGSGIPEADVKKAIGLGISKLNINTECQLAFAKAIREYVEAKKDLDTHNKGYDPRKLLKSPTQAIVDCCLEKMQLCGSTNKA
Q: For B1, which binding is on record?
A: The binding was “binds”.

B2: Uncharacterized protein MPN_491 (protein, UniProt P75295 1-474)
chain: MKLTLWLVLGAVGVGAVGTGVGFGTKYFLDHKAKSNVDVAFKQRSLRKQVNVGFWNALNFLGSERSFGNQNSKVKTKGIAEIINLLKYDIVGLAEIQPSTESTAERFVDQLNEYADPYTSWSYDLSPVTTSKTASEGQKERILIVYNSQSVKMEGQGWFYDNPEMDISNYVSDGSSSKTRTPKKTKTSKKKPIKKKSSKSKSSKGSKKQKTTNESESETLELKLEQRRVTTRSQSKQQKGQEQATDQTDSEGVTTEEGADNTDTELVETTAETTEQEATTKSTKDTKETKDRTKVDWSRPPYSAEFSTQKGKVVVAFGHFDSPGANTKRGEKIAKMGKGQGAHEYFEAQTTFKAMDSIKQHFNNENILFMADTNIKFGNQAAAFGESKDYTFLTEDNEAWKSSLGTKSGYANPYDKIITSNSFKNKVLDQAETYWNYFDRYLKTKGHNSYLFDLASWGTKPRTISDHAPVGVLF
Q: B2 was tested. Which binding did it give?
A: The binding was “binds”.

B3: 30S ribosomal protein S17 (protein, UniProt Q50309 1-85)
chain: MKRNQRKVLIGIVKSTKNAKTATVQVESRFKHPLYHKSVVRHKKYQAHNEGEVLAKDGDKVQIVETRPLSATKRFRIAKIIERAK
Q: How did the binding turn out when B3 was run?
A: The binding was “binds”.

B4: 30S ribosomal protein S5 (protein, UniProt Q50301 1-219)
chain: MTDQNQKANQGNGLQTTNLQAHAQRKHNLRPSSEGIKKAVSKKEGGGHNRNNQNRRFQKPAFKSEFEERIVKLKRISKTTKGGRNMRFSVLVVVGNRKGKIGYGIAKALEVPNAIKKAIKAAHNSLHTIEIHKGSIYHEVIGRSGASRVLLKPAPQGTGIIAGGAIRAIIELAGYSDIYTKNLGRNTPINMIHATMDGILKQLSPRRVAILRNKNLNEL
Q: Which binding does the source give for B4 here?
A: The binding was “binds”.

B5: Pyruvate dehydrogenase E1 component subunit alpha (protein, UniProt P75390 1-358)
chain: MAILIKNKVPTTLYQVYDNEGKLMDPNHKITLSNEQLKHAFYLMNLSRIMDKKMLVWQRAGKMLNFAPNLGEEALQVGMGMGLNENDWFCPTFRSGALMLYRGVKPEQLLLYWNGNENGSKIEAKYKTLPINITIGAQYSHAAGLGYMLHYKKLPNVAVTMIGDGGTAEGEFYEAMNIASIHKWNSVFCINNNQFAISTRTKLESAVSDLSTKAIAVNIPRIRVDGNDLIASYEAMHEAANYARSGNGPVLIEFFSWRQGPHTTSDDPSIYRTKEEEAEAMKSDPVKRLRNFLFDRGILTPQQEEEMVAKIEQEVQAAYEVMVSKTPVTLDEVFDYNYEKLTPDLARQKAEAKKYFKD
Q: With B5 as the binder, how does the binding read?
A: Its binding is “binds”.

B6: Pyruvate dehydrogenase E1 component, beta subunit (protein, UniProt P75391 1-327)
chain: MSKTIQANNIEALGNAMDLALERDPNVVLYGQDAGFEGGVFRATKGLQKKYGEERVWDCPIAEAAMAGIGVGAAIGGLKPIVEIQFSGFSFPAMFQIFTHAARIRNRSRGVYTCPIIVRMPMGGGIKALEHHSETLEAIYGQIAGLKTVMPSNPYDTKGLFLAAVESPDPVVFFEPKKLYRAFRQEIPADYYTVPIGQANLISQGNNLTIVSYGPTMFDLINMVYGGELKDKGIELIDLRTISPWDKETVFNSVKKTGRLLVVTEAAKTFTTSGEIIASVTEELFSYLKAAPQRVTGWDIVVPLARGEHYQFNLNARILEAVNQLLK
Q: With B6 as the binder, how does the binding read?
A: Its binding is “binds”.

B7: Dihydrolipoyl dehydrogenase (protein, UniProt P75393 1-457)
chain: MNYDLIIIGAGPAGYVAAEYAGKHKLKTLVVEKEYFGGVCLNVGCIPTKTLLKRAKIVDYLRHAQDYGISINGQVALNWNQLLEQKGKVVSKLVGGVKAIIASAKAETVMGEAKVLDPNTVEVAGKTYTTKSIVVATGSRPRYLTLPGFAEARQNGFVIDSTQALSLEGVPRKLVVVGGGVIGIEFAFLYASLGSEVTILQGVDRILEIFDTEVSDLVAKLLQTKNVKIITNAQVTRANNNEVFYSQNGQEGSVVGDRILVSIGRIPNTECLDGLNLQRDERNRIVLNQDLQTSIPNIYIVGDANAQLMLAHFAYQQGRYAVNHILNKKQVKPAQKLTCPSCIYTNPEVASVGYTEMELKKQGIPYVKTNLVLAHCGKAIADNETNGFVKMMFDPQTGKILGCCIIAATASDMIAELALAMGAGLTVFDIANSISPHPTINEMIADVCKKALFDHFK
Q: B7 was tested. Which binding did it give?
A: The binding was “binds”.
